About 3,700 (0.93%) of roughly 400,000 compounds were called active. The inconclusive results got no clear call from the source; some entries with a clear call stand among them for comparison. The call rests on the fitted dose curve; in most records, active means well fitted inhibition curve with a large enough effect; inconclusive means small, poorly fitted or top-dose-only effect, or another doubt; inactive means no such curve, though single readings can be large or run the other way. Potencies beside an inconclusive call are fits to weak or partial responses and may not hold up.
These molecules were tested against Vitamin D3 receptor (Homo sapiens) (UniProt P11473) (assay: Inhibitors of the vitamin D receptor (VDR): qHTS). Conditions: VDR-SRC2-3 peptide fluorescence polarization, 2 h; max response, negative = inhibition: active compounds read low.
Procedure, shortened: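 The screen uses fluorescence polarization to detect compounds that interfere with recruitment of the SRC2-3 coactivator peptide to VDR; plates are read after 2 h at room temperature.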
On the % scale 0 is the no-effect control and ±100 the full control effect; potency means the concentration at half of the fitted maximal effect.

By UniProt entry, the sequences of proteins in these tests, tags left out. Where a name states a change or a piece, a line headed by the entry shows the natural chain unless it says otherwise.
UniProt P11473: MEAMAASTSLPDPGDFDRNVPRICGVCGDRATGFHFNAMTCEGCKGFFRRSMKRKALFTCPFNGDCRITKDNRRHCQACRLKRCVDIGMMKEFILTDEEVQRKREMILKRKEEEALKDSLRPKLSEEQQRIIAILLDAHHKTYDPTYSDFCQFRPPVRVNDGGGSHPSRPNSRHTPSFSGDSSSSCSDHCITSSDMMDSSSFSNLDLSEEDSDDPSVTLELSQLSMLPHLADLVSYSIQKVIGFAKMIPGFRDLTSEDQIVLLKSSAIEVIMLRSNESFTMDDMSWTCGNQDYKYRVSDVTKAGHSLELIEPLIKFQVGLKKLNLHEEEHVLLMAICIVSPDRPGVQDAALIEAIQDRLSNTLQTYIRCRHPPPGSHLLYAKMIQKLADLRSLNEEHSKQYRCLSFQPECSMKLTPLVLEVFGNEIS

| Compound | max response, negative = inhibition | Potency |
| --- | --- | --- |
| CC1(C)Cc2ccccc2C(NNC(=O)c2ccccn2)=N1 | inactive: -6.88% |  |
| Cc1noc(C)c1-c1nc(NCc2cccnc2)c2ccccc2n1 |  | inconclusive: 44.7 µM [inhibitor, partial curve, poor fit] |
| CCC(Sc1nc2ccccc2c2nc(-c3ccccc3)nn12)C(=O)Nc1cccc(OC)c1 (stereo not drawn) | inactive: 21.5% |  |
| Cc1ccc2oc(=O)c3cnn(CC(=O)N4CCN(c5ccccc5)CC4)c3c2c1 |  | inconclusive: 89.1 µM [inhibitor, single point] |
| Cc1ccc(-n2c(O)c(C=Nc3cc(C)on3)c3ccccc3c2=O)c(C)c1 |  | inconclusive: 100 µM [inhibitor, partial curve, poor fit] |
| CC1CCN(C(=S)c2ccc([N+](=O)[O-])cc2)CC1 |  | inconclusive: 79.4 µM [inhibitor, single point] |
| O=C(CSc1nnc2c(Cl)cc(C(F)(F)F)cn12)N(Cc1ccccc1)Cc1ccccc1 |  | inconclusive: 112 µM [inhibitor, partial curve, poor fit] |
| COCCn1c(CCC(=O)O)ccc1-c1cccs1 | inactive: 13.1% |  |
| Cc1[nH]nc(-c2cccnc2)c1N=NN(C)C |  | inconclusive: 50.1 µM [inhibitor, partial curve, poor fit] |
| CC(=O)C1=C(C)Nc2ncnn2C1c1ccccc1F (stereo not drawn) | inactive: 10.8% |  |
| CC(C)(NC(=O)c1ccccc1)c1nc2ccccc2s1 |  | inconclusive: 50.1 µM [inhibitor, partial curve] |
| Cc1cc(NC(=O)CN2CCOCC2)n(-c2ccccc2)n1 | inactive: -7.1% |  |
| Cc1cc(C)n(C2CC(=O)N(c3cccc(Cl)c3)C2=O)n1 (stereo not drawn) |  | inconclusive: 28.2 µM [inhibitor, partial curve, poor fit] |
| Cc1cccc(C(=O)Nc2ccc(C(=O)/C=C/c3cccnc3)cc2)c1 |  | inconclusive: 39.8 µM [inhibitor, partial curve] |
| Cc1cc([N+](=O)[O-])nn1CCCC(=O)Nc1sc2c(c1C(N)=O)CCCC2 |  | active: 31.6 µM |
| CC(=O)N(C)C1=C(O)c2ccccc2C(=O)C1=O |  | inconclusive: 79.4 µM [inhibitor, partial curve] |
| Cc1ccc(SC2=C(Sc3ccc(C)cc3)C(=O)c3ccccc3C2=O)cc1 |  | inconclusive: 5.01 µM [inhibitor, full curve, poor fit] |
| Cc1oc(-c2ccccc2Cl)nc1CSc1nncn2c1cc1occc12 | inactive: -7.44% |  |
| O=C(Nc1ccc(F)cc1)Nc1csc2ccccc12 | inactive: 15.6% |  |
| CCc1ccc(N2CC(C(=O)OCc3nc4ccsc4c(=O)[nH]3)CC2=O)cc1 (stereo not drawn) | inactive: 24.8% |  |
| O=C(Nc1nncs1)c1cc(S(=O)(=O)N2CCOCC2)ccc1Cl |  | inconclusive: 89.1 µM [inhibitor, single point] |
| CC(C)N(Cc1nc2ccccc2[nH]1)C(C)C |  | inconclusive: 2.24 µM [inhibitor, partial curve, poor fit] |

| Compound | max response, negative = inhibition | Potency |
| --- | --- | --- |
| Clc1ccccc1-c1nnc2sc(C3COc4ccccc4O3)nn12 (stereo not drawn) |  | inconclusive: 25.1 µM [inhibitor, partial curve, poor fit] |
| N#Cc1ccc(OCC(=O)N2CCN(c3ccc(C(F)(F)F)cn3)CC2)cc1 |  | inconclusive: 89.1 µM [inhibitor, single point] |
| Cc1ccc(C2NC(=O)c3c(sc4c3CCN(C)C4)N2)s1 (stereo not drawn) |  | inconclusive: 15.8 µM [inhibitor, full curve, poor fit] |
| CC(NC(=O)c1cccnc1)C(c1ccccc1)N1CCN(C)CC1 (stereo not drawn) | inactive: 9.35% |  |
| N#Cc1ccccc1NC(=O)CSC1=Nc2ccccc2C2CC=NN12 (stereo not drawn) |  | inconclusive: 79.4 µM [inhibitor, single point] |
| CCc1nc(SCC(=O)c2ccc3c(c2)OCCO3)c2ccccc2n1 |  | inconclusive: 56.2 µM [inhibitor, partial curve, poor fit] |
| C=CCn1c(CCNC(=O)c2cccs2)nnc1SCC(=O)c1ccc(Cl)cc1 |  | inconclusive: 79.4 µM [inhibitor, single point] |
| CC(C)c1ccc(NC(=O)/C(C#N)=C/c2ccncc2)cc1 |  | inconclusive: 50.1 µM [inhibitor, partial curve, poor fit] |
| Cc1cc2c(cc1Cl)N(C(=O)Nc1ccnc3ccccc13)CC2 |  | inconclusive: 56.2 µM [inhibitor, partial curve, poor fit] |
| CCOc1cc(C2C(C(=O)OC)=C(C)NC3=C2C(=O)c2ccccc23)cc(Br)c1OCC (stereo not drawn) |  | inconclusive: 89.1 µM [inhibitor, partial curve, poor fit] |
| Cc1nc2c(nnn2Cc2ccccc2)c(=O)[nH]1 |  | inconclusive: 28.2 µM [inhibitor, full curve] |
| CC1CCN(S(=O)(=O)c2cccc(-c3nnc(-c4cccnc4)o3)c2)CC1 |  | inconclusive: 22.4 µM [inhibitor, partial curve, poor fit] |
| CCCCOP(=O)(c1ccc(N(C)C)cc1)C(O)c1ccc(C(C)C)cc1 (stereo not drawn) | inactive: 6.54% |  |
| c1ccc(CNc2oc(-c3ccccc3)nc2-c2cccc3ccccc23)cc1 |  | inconclusive: 70.8 µM [inhibitor, partial curve] |
| CCOC(=O)c1c(NC(=S)Nc2ccc(C)cc2)sc2c1CCC2 | inactive: -16.9% |  |
| O=C(/C=C/c1ccccc1O)c1ccccc1 |  | active: 28.2 µM |
| CN(C)c1ncc2nc(-c3ccc(Cl)cc3)c(=O)n(Cc3cccs3)c2n1 |  | inconclusive: 39.8 µM [inhibitor, full curve] |
| Cc1ccc2nc(NC(=O)C3CCN(S(=O)(=O)c4cc([N+](=O)[O-])ccc4Cl)CC3)sc2c1 | inactive: -19.2% |  |
| CC1=C(C(=O)Nc2cccc(C(F)(F)F)c2)C2(CCN(C(C)C)CC2)OC1=O | inactive: 8.11% |  |
| CCCCCN(C(=O)CCC(=O)OCCOc1cccc(C)c1)c1c(N)n(CCCC)c(=O)[nH]c1=O |  | inconclusive: 70.8 µM [inhibitor, single point] |
| COc1cccc(NC(=O)CSC(N)=O)c1 |  | active: 22.4 µM |

3 records picked at random from the list so far, as already listed:

| Compound | max response, negative = inhibition | Potency |
| --- | --- | --- |
| Cc1noc(C)c1-c1nc(NCc2cccnc2)c2ccccc2n1 |  | inconclusive: 44.7 µM [inhibitor, partial curve, poor fit] |
| O=C(Nc1ccc(F)cc1)Nc1csc2ccccc12 | inactive: 15.6% |  |
| CC1=C(C(=O)Nc2cccc(C(F)(F)F)c2)C2(CCN(C(C)C)CC2)OC1=O | inactive: 8.11% |  |

— PubChem BioAssay AID504847 (National Center for Advancing Translational Sciences (NCATS), 2011)
